# This is a selection; strong and weak results do not stand in their true shares. Records with an inconclusive call do not appear. Where a structure was tested more than once in an assay, its records may differ in their call. Activity calls are given as the source filed them. Rule for the calls, unless noted: active = hit-call score of the fitted dose curve at least 0.9, where 1 is the maximum; inconclusive = response in the unintended direction; inactive = score below 0.9.
# Sequences of proteins named here, by UniProt entry; tags and fusion partners are left off. A change or cut given only in a name is not applied to a line headed by its entry.
# UniProt Q03181: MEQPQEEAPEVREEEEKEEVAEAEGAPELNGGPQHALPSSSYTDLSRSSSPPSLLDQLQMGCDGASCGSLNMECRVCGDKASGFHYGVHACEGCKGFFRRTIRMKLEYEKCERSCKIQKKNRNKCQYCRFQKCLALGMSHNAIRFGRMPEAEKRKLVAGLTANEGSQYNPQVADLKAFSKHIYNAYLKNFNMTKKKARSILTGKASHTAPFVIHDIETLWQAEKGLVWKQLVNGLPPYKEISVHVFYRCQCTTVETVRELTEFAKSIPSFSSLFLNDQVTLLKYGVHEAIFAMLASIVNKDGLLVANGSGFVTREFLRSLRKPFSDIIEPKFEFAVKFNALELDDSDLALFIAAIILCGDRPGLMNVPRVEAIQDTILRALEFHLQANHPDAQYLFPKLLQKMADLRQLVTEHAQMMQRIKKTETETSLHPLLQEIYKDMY
# UniProt P04637, whole entry, looked up: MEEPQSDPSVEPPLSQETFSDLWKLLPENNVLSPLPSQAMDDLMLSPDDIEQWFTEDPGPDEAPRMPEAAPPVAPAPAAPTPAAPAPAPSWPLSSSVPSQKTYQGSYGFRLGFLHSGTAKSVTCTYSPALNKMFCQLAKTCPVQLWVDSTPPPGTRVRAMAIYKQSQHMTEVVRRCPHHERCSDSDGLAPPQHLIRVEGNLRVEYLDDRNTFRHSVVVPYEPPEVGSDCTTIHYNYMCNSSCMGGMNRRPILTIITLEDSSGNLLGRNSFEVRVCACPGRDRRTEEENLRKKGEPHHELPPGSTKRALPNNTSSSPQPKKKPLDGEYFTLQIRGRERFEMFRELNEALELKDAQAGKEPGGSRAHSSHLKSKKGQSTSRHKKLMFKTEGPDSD
# Columns and labels:
# [1] = target: human Peroxisome Proliferator-activated Receptor delta (PPARd), PPARD (gene 5467) (UniProt Q03181); experiment: ATG_PPARd_TRANS: Attagene TRANS-FACTORIAL HepG2 Assay for human Peroxisome Proliferator-activated Receptor delta (PPARd) (AID 2283002)
# How it was run: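 Read-out is induced reporter mRNA, quantified by RT-PCR with fluorescent labelling and capillary electrophoresis after 24 h dosing. Cells are HepG2 transiently carrying multiple GAL4-UAS reporter units driven by exogenous NR-GAL4 chimeras; DMSO serves as baseline.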
# [2] = read-out: Bcl-2 (BAD) gene, BAD (gene 572); experiment: LTEA_HepaRG_BAD: Life Technologies and Expression Analysis (LTEA) Assay for Bcl-2 (BAD) gene using HepaRG (AID 2283469; active = hit-call score of the fitted dose curve at least 0.9, where 1 is the maximum; inactive = score below 0.9); conditions: actives raise or lower the signal; mRNA level, 48 h
# How it was run: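 Read-out: qRT-PCR of BAD mRNA, normalized to three housekeeping genes. Human HepaRG cultures got 48 h chemical exposure in 0.5% DMSO, duplicate eight-point half-log series topping at 100 uM. Gain or loss of signal fitted versus DMSO vehicle.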
# [3] = target: Cellular tumor antigen p53 (Homo sapiens) (UniProt P04637); experiment: TOX21_p53_BLA_p3_ratio: Tox21 HCT-116 p53 Agonism Beta-lactamase Assay, Ratio, Phase 3 (AID 2283596)
# How it was run: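 Cells were seeded at 4000/well, rested 5 h at 37C, then dosed with DMSO compound solutions (217-fold dilution) for 16 h. CCF4-AM substrate was loaded for 2 h at room temperature, and the 460/530 nm emission ratio was fitted for gain of signal versus DMSO.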
compound,measurement,setting,value
C[C@]12CCC(=O)C=C1CC[C@@H]1[C@@H]2CC[C@@]2(C)[C@H]1CC[C@]2(C)O,outcome,[1],inactive
same,outcome,[2],inactive
same,AC50,[3],active: 47.6 µM

# Reference: PubChem BioAssay (EPA / NIEHS)
